Source: patent publication US10640545B2 (THE GOVERNORS OF THE UNIVERSITY OF ALBERTA, priority 2017, dated 2020)

Columns and labels:
peptide synthesis = details: whole synthesis
[1] = general procedure: Fmoc solid-phase peptide synthesis; PyBOP/HOBt/DIPEA or HATU/HOAt/DIPEA; details: whole synthesis, scale 0.05 mmol

Row | Substance | isolated yield (peptide synthesis) | isolated mass [1] | isolated yield [1]
1 | Lys-Phe-Arg-Arg-Gln-Arg-Pro-Arg-D-Leu-Ser-His-Lys-Gly-Pro-Nle-Aib-paraBrPhe | 9.1% | – | –
2 | Lys-Phe-Arg-Arg-Gln-Arg-Pro-Arg-NMeLeu-Ser-His-Lys-Gly-Pro-Nle-Aib-paraBrPhe | 22% | – | –
3 | Lys-Phe-Arg-Arg-Gln-Arg-Pro-αMeArg-Leu-Ser-His-Lys-Gly-Pro-Nle-Aib-paraBrPhe | 11% | – | –
4 | pGlu-Arg-Pro-Arg-D-Leu-Ser-His-Lys-Gly-Pro-Nle-Aib-paraBrPhe | – | 11.3 mg | 14%
5 | pGlu-Arg-Pro-Arg-NMeLeu-Ser-His-Lys-Gly-Pro-Nle-Aib-paraBrPhe | – | 6.0 mg | 7%
6 | pGlu-Arg-Pro-αMeArg-Leu-Ser-His-Lys-Gly-Pro-Nle-Aib-paraBrPhe | – | 8.5 mg | 11%
